Reference: article PMC6657595, “A DNA-Binding Protein Tunes Septum Placement during Bacillus subtilis Sporulation”
Positions count from the first letter of the chain named. For at least one entry, the source does not settle the construct or the ends of the probe. Weaker means in comparison with the reference protein, sequence or condition of that experiment. Tags and fusion partners may be left off the protein sequences shown.

Columns and labels:
[1] = biological target: T1, RefZ L153R-His6 (Bacillus subtilis 168) (UniProt O34970); test: BLI; conditions: within 2-fold of WT, P = 0.003; recombinant protein; protein details: C-terminal His6 (pET-24b NheI/XhoI); label: 5' biotin on S27 strand
T1 sequence (looked up, limits assumed): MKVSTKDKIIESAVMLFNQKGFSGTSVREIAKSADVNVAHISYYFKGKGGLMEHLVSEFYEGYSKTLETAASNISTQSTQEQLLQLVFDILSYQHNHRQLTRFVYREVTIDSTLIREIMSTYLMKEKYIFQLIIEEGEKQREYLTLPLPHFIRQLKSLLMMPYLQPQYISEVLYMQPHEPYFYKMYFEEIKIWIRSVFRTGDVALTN

[2] = biological target: T2, RefZ R116W-His6 (Bacillus subtilis 168) (UniProt O34970); test: BLI; conditions: within 2-fold of WT, P = 0.05; recombinant protein; protein details: C-terminal His6 (pET-24b NheI/XhoI); label: 5' biotin on S27 strand
T2 sequence (looked up, limits assumed): T1 sequence (looked up, limits assumed) with R116W, R153L

## GCCTTTTCGTTTTGAACAAACGTTTGATTAAAACAAATAGC (double strand) [RBML1 41-bp]
[1]
  binding result: binds more weakly
[2]
  binding result: binds more weakly
